Data as given in PubChem BioAssay AID1259260 (Sanger Institute, 2017).

Assay: 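Kinome knock-down with three anchor drugs to find synergy partners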 (primary screen)
Cell system: human NCI-H716 colorectal cancer cells
Knock-down reagent: siRNA pool against human genes
Challenge: anchor drugs BYL719 (alpelisib) 1 µM, cetuximab 5 µg/ml or trametinib 10 nM, each at a dose chosen to harm viability only mildly; DMSO vehicle for the knock-down-alone arm
Read-out: 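Mean viability over replicates against non-targeting siRNA, robust z-score without drug, and per-drug synergy comparing combined with single treatments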
Scale: viability robust z-score, siRNA alone: higher = more surviving cells; below -3 called essential
Rule for the call: 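a knock-down counts as essential if its no-drug robust z-score is lower than -3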
Meaning of the calls: active = essential (knock-down alone lowers viability); inactive = no essential effect
The deposit covers 794 reagents; shown is a random part of them. 13 of all reagents (1.6%) were called active. 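Calls reflect only knock-down without drug; synergy above 0.15 was grouped apart and does not change the call.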 Not all columns of the deposit are shown. Reagent sequences are not shown. The record does not give: the amount of reagent, the time to read-out.

gene	viability robust z-score, siRNA alone	call
ATRX	0.602	inactive
IRAK3	-2.29	inactive
ZC3H11A	0.602	inactive
DGKI	0.602	inactive
PTPN11	0.367	inactive
MYO3A	-2.64	inactive
EFNA3	0.602	inactive
COMMD3	0.356	inactive
CDK4	-1.2	inactive
TNNI3K	0.602	inactive
PDXK	0.602	inactive
FGFR4	0.602	inactive
NRAS	0.602	inactive
TK2	-2	inactive
CDKN1B	0.602	inactive
HASPIN	0.285	inactive
TEX14	-0.0244	inactive
PGK1	0.602	inactive
PRKCD	-4.06	active
PIK3R1	-0.849	inactive
STK33	0.602	inactive
ADCK1	0.602	inactive
RYK	0.602	inactive
LIMK1	0.602	inactive
PKM	0.602	inactive
MPP1	0.602	inactive
PHKA2	0.231	inactive
AMER1	-2.96	inactive
RPS6KA1	-0.752	inactive
PRKAG1	-0.178	inactive
ACSL6	0.602	inactive
ADCK5	0.602	inactive
PFKFB2	-1.77	inactive
TSSK2	0.585	inactive

Targets listed so far whose target name starts with A or a:
gene	viability robust z-score, siRNA alone	call
ATRX	0.602	inactive
ADCK1	0.602	inactive
AMER1	-2.96	inactive
ACSL6	0.602	inactive
ADCK5	0.602	inactive

The list goes on.
gene	viability robust z-score, siRNA alone	call
DLG4	0.0335	inactive
CDK11B	0.00197	inactive
CTNNB1	0.602	inactive
CAMK2A	0.224	inactive
SRP72	0.602	inactive
PIK3CB	-0.31	inactive
MAP3K4	-0.997	inactive
IP6K1	0.36	inactive
DGKK	0.602	inactive
PFKFB1	-0.397	inactive
FOXP1	0.602	inactive
CDK9	0.602	inactive
CSNK2A1	0.602	inactive
TSSK4	0.602	inactive
PIK3R4	-0.157	inactive
SF3B1	-4.21	active
IP6K2	0.602	inactive
CDK10	-2.36	inactive
PIP5K1C	0.602	inactive
PHKG1	0.602	inactive
PFKFB4	-0.394	inactive
KHK	-2.44	inactive
GUCY2F	0.602	inactive
GUCY2EP	0.602	inactive
VRK3	0.602	inactive
PRKDC	-0.722	inactive
RIPK1	-0.396	inactive
CALM3	0.556	inactive
FXN	0.602	inactive
